Experiment [1] addresses T1, Upf1 full-length (tethered to the binding domain) (S. cerevisiae) (UniProt P30771).
T1 sequence: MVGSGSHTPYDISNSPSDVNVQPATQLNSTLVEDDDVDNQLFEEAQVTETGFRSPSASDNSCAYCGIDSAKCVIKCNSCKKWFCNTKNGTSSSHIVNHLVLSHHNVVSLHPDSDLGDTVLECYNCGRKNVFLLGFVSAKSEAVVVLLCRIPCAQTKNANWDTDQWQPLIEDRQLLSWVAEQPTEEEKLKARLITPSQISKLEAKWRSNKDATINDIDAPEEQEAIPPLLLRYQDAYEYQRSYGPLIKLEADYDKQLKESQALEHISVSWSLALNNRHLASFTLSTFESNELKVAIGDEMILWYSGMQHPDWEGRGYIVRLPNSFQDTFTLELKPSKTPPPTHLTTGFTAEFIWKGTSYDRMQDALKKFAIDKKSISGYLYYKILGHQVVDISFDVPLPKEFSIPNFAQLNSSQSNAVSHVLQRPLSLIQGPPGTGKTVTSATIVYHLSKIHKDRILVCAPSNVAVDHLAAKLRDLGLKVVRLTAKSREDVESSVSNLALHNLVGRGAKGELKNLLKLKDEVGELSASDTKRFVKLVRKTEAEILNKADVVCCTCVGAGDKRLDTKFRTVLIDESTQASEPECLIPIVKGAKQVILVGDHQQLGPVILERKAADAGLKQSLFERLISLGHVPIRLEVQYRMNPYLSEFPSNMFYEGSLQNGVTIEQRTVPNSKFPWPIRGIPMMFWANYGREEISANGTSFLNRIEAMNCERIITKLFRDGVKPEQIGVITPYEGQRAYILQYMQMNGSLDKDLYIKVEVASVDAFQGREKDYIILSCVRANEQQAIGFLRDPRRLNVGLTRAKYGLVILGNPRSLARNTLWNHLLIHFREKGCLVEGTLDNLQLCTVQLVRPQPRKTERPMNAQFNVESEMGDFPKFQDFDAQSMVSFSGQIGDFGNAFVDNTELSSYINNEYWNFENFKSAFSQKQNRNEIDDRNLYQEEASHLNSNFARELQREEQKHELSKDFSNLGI
The experiment in a line: two-hybrid; yeast two-hybrid, β-galactosidase plate assay; AD and BD fusions; for the point mutants: mating of MATa (yRP2094) and MATα (yRP2093) strains and selection of diploids on drop-out media.

Experiment [2] addresses T2, BD-Upf1 N-terminus (1–230) (S. cerevisiae) (UniProt P30771).
T2 sequence: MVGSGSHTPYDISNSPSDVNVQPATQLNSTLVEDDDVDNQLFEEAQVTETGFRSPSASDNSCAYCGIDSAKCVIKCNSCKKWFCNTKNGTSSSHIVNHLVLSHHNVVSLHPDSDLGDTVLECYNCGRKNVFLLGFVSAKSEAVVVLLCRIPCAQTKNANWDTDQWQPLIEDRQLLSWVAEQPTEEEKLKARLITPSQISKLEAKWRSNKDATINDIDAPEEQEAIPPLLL
The experiment is described as above.

The target in experiment [3] is T2, BD-Upf1 N-terminus (1–230) (S. cerevisiae). The experiment in a line: two-hybrid; yeast two-hybrid, β-galactosidase plate assay; one haploid strain transformed with both the AD and BD plasmids; deletion strains yRP2834 (edc3Δ), yRP2835 (upf2Δ), yRP2836 (pat1Δ).

Binding data for three molecules are collected here from article PMC3204985.

No constants are given. Whether binding was seen depends on the method and setting. Some binding calls cover weakened binding; strength is not graded here. Tags and fused reporters may be left off the sequences shown.

B1: AD-Dcp2 (102–300) (domain or fragment, UniProt P53550 102-300)
chain: SIPVRGAAIFNENLSKILLVQGTESDSWSFPRGKISKDENDIDCCIREVKEEIGFDLTDYIDDNQFIERNIQGKNYKIFLISGVSEVFNFKPQVRNEIDKIEWFDFKKISKTMYKSNIKYYLINSMMRPLSMWLRHQRQIKNEDQLKSYAEEQLKLLLGITKEEQIDPGRELLNMLHTAVQANSNNNAVSNGQVPSSQE
Regarding B1, the binding result in experiment [1] is reported as “no binding”.

B2: AD-Dcp2 (102–245) (domain or fragment, UniProt P53550 102-245)
chain: SIPVRGAAIFNENLSKILLVQGTESDSWSFPRGKISKDENDIDCCIREVKEEIGFDLTDYIDDNQFIERNIQGKNYKIFLISGVSEVFNFKPQVRNEIDKIEWFDFKKISKTMYKSNIKYYLINSMMRPLSMWLRHQRQIKNED
As to B2, the binding result in experiment [2] is on record as “no binding”.

B3: AD-Edc3 Full-length (protein, UniProt P39998 1-551)
chain: MSQFVGFGVQVELKDGKLIQGKIAKATSKGLTLNDVQFGDGGKSQAFKVRASRLKDLKVLTVASQSGKRKQQRQQQQQNDYNQNRGEHIDWQDDDVSKIKQQEDFDFQRNLGMFNKKDVFAQLKQNDDILPENRLQGHNRKQTQLQQNNYQNDELVIPDAKKDSWNKISSRNEQSTHQSQPQQDAQDDLVLEDDEHEYDVDDIDDPKYLPITQSLNITHLIHSATNSPSINDKTKGTVINDKDQVLAKLGQMIISQSRSNSTSLPAANKQTTIRSKNTKQNIPMATPVQLLEMESITSEFFSINSAGLLENFAVNASFFLKQKLGGRARLRLQNSNPEPLVVILASDSNRSGAKALALGRHLCQTGHIRVITLFTCSQNELQDSMVKKQTDIYKKCGGKIVNSVSSLESAMETLNSPVEIVIDAMQGYDCTLSDLAGTSEVIESRIKSMISWCNKQRGSTKVWSLDIPNGFDAGSGMPDIFFSDRIEATGIICSGWPLIAINNLIANLPSLEDAVLIDIGIPQGAYSQRTSLRKFQNCDLFVTDGSLLLDL
As to B3, the binding result in experiment [3] and in experiment [2] was “binds” throughout.
